Data from patent US20110098223A1 (priority 2008, published 2011).

Assay: general procedure: Fmoc solid-phase peptide synthesis
Conditions: whole synthesis, analytical HPLC and mass spectrometry

Substance: H EAKSQGGSD-NH2
- final HPLC purity: >95%
